# Assay results published in the supplement of paper PMC9135407.
# “And” between values parts separate entries of the source, which are not always exact repeats. Equal values may be shown once. ± gives the standard deviation of the averaged measurements. This is one part of the list. Baselines shift from plate to plate; read single values as rough.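 Assay uses culture-activated primary human stellate myofibroblasts; lipid droplet recovery indicates inactivation. Measured: proportion of Hoechst-counted cells over a plate-specific Bodipy cutoff, duplicate wells, DMSO and nortriptyline as per-plate negative and positive controls. A hit scores, control-normalized, above the plate's top-tenth-percentile nortriptyline wells or ranks among its three best wells. Final well concentrations not reported.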
# System: primary human hepatic stellate cells (donor 1)
# Assay: percent Bodipy-positive cells; higher = more lipid droplet accumulation
# Details: 48 h
# [1] = library stock concentration: 3.33 mM
# [2] = library stock concentration: 10 mM
# [3] = library stock concentration: 1 mM
structure (smiles),measurement,setting,value
O=S(=O)(O)CCS [Mesna],percent Bodipy-positive cells,[1],14 ± 2.4%
same,percent Bodipy-positive cells,[2],11.5% and 27.6%
same,percent Bodipy-positive cells,library stock concentration: 12.2 mM,16.8 ± 2.9%
CCn1cc(C(=O)O)c(=O)c2cnc(N3CCCC3)nc21 [Piromidic acid],percent Bodipy-positive cells,,9.65 ± 4.5%
same,percent Bodipy-positive cells,[2],32.2 ± 11%
CCOC(=O)OC(C)OC1=C(C(=O)Nc2ccccn2)N(C)S(=O)(=O)c2ccccc21 (stereo unspecified) [Ampiroxicam],percent Bodipy-positive cells,[1],11.7 ± 6.1%
same,percent Bodipy-positive cells,library stock concentration: 4.5 mM,11.3 ± 3%
same,percent Bodipy-positive cells,[2],26.6 ± 22%
CCOC(=O)OC(C)OC1=C(C(=O)Nc2ccccn2)N(C)S(=O)(=O)c2ccccc21 (stereo unspecified),percent Bodipy-positive cells,[2],15.4 ± 8.5%
O=C(Nc1c(Cl)cncc1Cl)c1ccc(OC(F)F)c(OCC2CC2)c1 [Roflumilast],percent Bodipy-positive cells,[1],8.1 ± 3.9%
same,percent Bodipy-positive cells,[2],7.99 ± 1.7%
Cc1cccc(-c2[nH]c(CNc3ccccc3F)nc2-c2ccc3ncnn3c2)n1,percent Bodipy-positive cells,library stock concentration: 80 uM,11.9 ± 0.39%
same,percent Bodipy-positive cells,library stock concentration: 400 uM,11.6 ± 5.4%
same,percent Bodipy-positive cells,library stock concentration: 2 mM,9.65 ± 1.6%
same,percent Bodipy-positive cells,[2],10.3 ± 1.3%
CC(=O)[C@H]1CC[C@H]2[C@@H]3C[C@H](C)C4=CC(=O)CC[C@]4(C)[C@H]3[C@@H](O)C[C@]12C [Medrysone],percent Bodipy-positive cells,,10.4 ± 0.26%
same,percent Bodipy-positive cells,library stock concentration: 5.8 mM,5.5 ± 1.7%
same,percent Bodipy-positive cells,[2],6.84 ± 0.69%
CC(=O)[C@H]1CC[C@H]2[C@@H]3C[C@H](C)C4=CC(=O)CC[C@]4(C)[C@H]3[C@@H](O)C[C@]12C,percent Bodipy-positive cells,[2],36.2 ± 14%
O=C(Nc1cccc(Nc2ncc(Br)c(NCCc3c[nH]cn3)n2)c1)N1CCCC1,percent Bodipy-positive cells,[2],90.2 ± 1.9%
CCCCC/C=C\C/C=C\C/C=C\C/C=C\CCCC(=O)S[C@H](COCCCCCCCCCCCCCCCC)COP(=O)([O-])OCC[N+](C)(C)C [Arachidonoyl thio-PC],percent Bodipy-positive cells,[3],8.42 ± 2.3%
"CCCS(=O)(=O)Nc1ccc(F)c(C(=O)c2c[nH]c3ncc(-c4ccc(Cl)cc4)cc23)c1F [Vemurafenib (PLX4032, RG7204)]",percent Bodipy-positive cells,[1],9.24 ± 4.4%
same,percent Bodipy-positive cells,[2],22.6 ± 8.2%
"O=C(O)CCC/C=C\C[C@H]1C(=O)C=C[C@@H]1CC[C@@H](O)CCc1ccccc1 [17-phenyl trinor-13,14-dihydro Prostaglandin A2]",percent Bodipy-positive cells,[3],18.2 ± 0.67%
CCCCNC(=O)NS(=O)(=O)c1ccc(C)cc1,percent Bodipy-positive cells,[2],30.1 ± 8.6%
CCCCNC(=O)NS(=O)(=O)c1ccc(C)cc1 [Tolbutamide],percent Bodipy-positive cells,,28 ± 3.9%
same,percent Bodipy-positive cells,[1],10.3 ± 2%
same,percent Bodipy-positive cells,[2],15.9% and 23.5%
same,percent Bodipy-positive cells,library stock concentration: 18.5 mM,22.5 ± 2.2%
C[C@@H]1O[C@@H](O[C@H]2[C@H](Oc3cc(O)c(C(=O)CCc4ccc(O)cc4)c(O)c3)O[C@H](CO)[C@@H](O)[C@@H]2O)[C@H](O)[C@H](O)[C@H]1O [Naringin Dihydrochalcone],percent Bodipy-positive cells,[1],6.6 ± 2.8%
same,percent Bodipy-positive cells,[2],35.3 ± 8.9%
"c1ccc2c(-c3ccncc3)c[nH]c2c1 [Rho Kinase Inhibitor III, Rockout]",percent Bodipy-positive cells,[1],8.41 ± 4.9%
CC/C=C\C/C=C\C/C=C\C/C=C\C/C=C\C/C=C\CCC(=O)NCCO [Docosahexaenoyl Ethanolamide],percent Bodipy-positive cells,[3],6.98 ± 0.4%
O=C(O)c1cc(-c2ccc(F)cc2F)ccc1O [Diflunisal],percent Bodipy-positive cells,,24.4 ± 10%
same,percent Bodipy-positive cells,library stock concentration: 8 mM,7.89% and 1.95%
same,percent Bodipy-positive cells,[2],12.5 ± 5.1%

# Reprinted from above for reference:
structure (smiles),measurement,setting,value
CC(=O)[C@H]1CC[C@H]2[C@@H]3C[C@H](C)C4=CC(=O)CC[C@]4(C)[C@H]3[C@@H](O)C[C@]12C,percent Bodipy-positive cells,[2],36.2 ± 14%
O=C(Nc1cccc(Nc2ncc(Br)c(NCCc3c[nH]cn3)n2)c1)N1CCCC1,percent Bodipy-positive cells,[2],90.2 ± 1.9%
